Results are given in words; binding and its absence hold for the method and conditions named. Some entries that bind do so weakly or less than the wild type.
Columns and labels:
CD147 protein [1] = target: CD147 protein (UniProt P35613); test: ELISA, relative binding activity (EC50 of sample against reference), preset standard 65%-150%
CD147 protein [2] = target: CD147 protein (UniProt P35613); test: ELISA, relative binding activity after 6 months at 2-8 C, preset standard 65%-150%
CD147 protein [3] = target: CD147 protein (UniProt P35613); test: ELISA, relative binding activity after 40-fold dilution in 0.9% NaCl, up to 8 h at 25 C, preset standard 65%-150%

Amino acid sequences for entries named in this document (tags omitted). A change or cut given only in a name is not applied to a line headed by its entry. Chains listed by the source or under a name are the forms on record and can include a tag or linker.
CD147 protein (P35613, form named): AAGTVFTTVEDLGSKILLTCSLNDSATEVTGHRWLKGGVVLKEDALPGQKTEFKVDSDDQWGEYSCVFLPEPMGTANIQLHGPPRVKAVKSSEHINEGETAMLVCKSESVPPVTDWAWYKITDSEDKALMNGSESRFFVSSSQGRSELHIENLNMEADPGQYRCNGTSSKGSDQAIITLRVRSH

- binding (CD147 protein [1]): binds
- binding (CD147 protein [2]): binds
- binding (CD147 protein [3]): binds
B1: HcHAb18 monoclonal antibody (antibody, human IgG1, kappa, V domains shown)
VH: EVKLEESGGGLVQPGGSMKLSCVASGFTFSDAWMDWVRQSPEKGLEWVAEIRSKANNHAPYYTESVKGRFTISRDDSKSIIYLQMNNLRAEDTGIYYCTRDSTATHWGQGTLVTVSA
VL: SIVMTQTPTFLVVSAGDRVTITCKASQSVINDVAWYQQKPGQSPKLLIFYASNRNTGVPDRFTGSGYGTDFTFTISTVQAEDLAVYFCQQDYSPPFTFGSGTKLEIKR

Source: patent WO2018121578A1
